This assay addresses GST-Elp1 N-terminal region (construct of Fig. 2F) (Saccharomyces cerevisiae (budding yeast)). Description: pull-down; 20 μg GST-tagged bait mixed with equimolar Hrr25 variant, GST Sepharose 4B, 1 h at 4°C; 20 mM Tris pH 7.5, 150 mM NaCl, 0.5% Tween 20, 2 mM DTT, 2 mM MgCl2; three washes; SDS-PAGE and WB with Hrr25-specific antibodies; both purified.

No constants are given. Whether binding was seen depends on the method and setting. A result given as binding can be weak or reduced; the word gives no strength.

B1: full-length (FL) yeast Hrr25, nonphosphorylated (enzyme, Saccharomyces cerevisiae (budding yeast), UniProt P29295 1-494, looked up)
chain: MDLRVGRKFRIGRKIGSGSFGDIYHGTNLISGEEVAIKLESIRSRHPQLDYESRVYRYLSGGVGIPFIRWFGREGEYNAMVIDLLGPSLEDLFNYCHRRFSFKTVIMLALQMFCRIQYIHGRSFIHRDIKPDNFLMGVGRRGSTVHVIDFGLSKKYRDFNTHRHIPYRENKSLTGTARYASVNTHLGIEQSRRDDLESLGYVLIYFCKGSLPWQGLKATTKKQKYDRIMEKKLNVSVETLCSGLPLEFQEYMAYCKNLKFDEKPDYLFLARLFKDLSIKLEYHNDHLFDWTMLRYTKAMVEKQRDLLIEKGDLNANSNAASASNSTDNKSETFNKIKLLAMKKFPTHFHYYKNEDKHNPSPEEIKQQTILNNNAASSLPEELLNALDKGMENLRQQQPQQQVQSSQPQPQPQQLQQQPNGQRPNYYPEPLLQQQQRDSQEQQQQVPMATTRATQYPPQINSNNFNTNQASVPPQMRSNPQQPPQDKPAGQSIWL
notes: cloned into pFastBacHT A with a TEV cleavage site after the tag; also called FL Hrr25; Hrr25 WT; source: Trichoplusia ni High Five cells, purified (NiNTA, gel filtration)
Turning to B1, the binding result was “binds weakly”.

The record behind these values is article PMC12421383, “Autophosphorylation of conserved yeast and human casein kinase 1 isozymes regulates Elongator-dependent tRNA modifications” (Nucleic Acids Research, 2025).
